Bridges are numbered along the chain shown (N, C = ends). The star is where a group is joined. Propanoyl(2-F) = CC(F)C(=O)*
Experiment: general procedure: Fmoc solid-phase peptide synthesis; TCP resin; H-Cys-2-ClTrt resin (loading 0.56 mmol/g); PyBOP/HOBt/DIPEA; HATU/DIPEA for second Trp coupling; HOAt/HATU
Conditions: whole synthesis, UV 220 nm, scale of the general procedure 100 mg resin

Row | Substance | final HPLC purity
1 | {Propanoyl(2-F)}-CRRETAWAC-OH (disulfide 1-9; SMILES CC(F)C(=O)N[C@H]1CSSC[C@@H](C(=O)O)NC(=O)[C@H](C)NC(=O)[C@H](Cc2c[nH]c3ccccc23)NC(=O)[C@H](C)NC(=O)[C@H]([C@@H](C)O)NC(=O)[C@H](CCC(=O)O)NC(=O)[C@H](CCCNC(=N)N)NC(=O)[C@H](CCCNC(=N)N)NC1=O) | >99%
2 | H-CRRETAWAC-OH (disulfide 1-9; SMILES C[C@@H]1NC(=O)[C@H](Cc2c[nH]c3ccccc23)NC(=O)[C@H](C)NC(=O)[C@H]([C@@H](C)O)NC(=O)[C@H](CCC(=O)O)NC(=O)[C@H](CCCNC(=N)N)NC(=O)[C@H](CCCNC(=N)N)NC(=O)[C@@H](N)CSSC[C@@H](C(=O)O)NC1=O) | >95%
